## Percent effect of library compounds

The chains behind the UniProt entries cited, without tags or fusion partners. Residues count along the entry.
UniProt P9WNZ1, whole entry: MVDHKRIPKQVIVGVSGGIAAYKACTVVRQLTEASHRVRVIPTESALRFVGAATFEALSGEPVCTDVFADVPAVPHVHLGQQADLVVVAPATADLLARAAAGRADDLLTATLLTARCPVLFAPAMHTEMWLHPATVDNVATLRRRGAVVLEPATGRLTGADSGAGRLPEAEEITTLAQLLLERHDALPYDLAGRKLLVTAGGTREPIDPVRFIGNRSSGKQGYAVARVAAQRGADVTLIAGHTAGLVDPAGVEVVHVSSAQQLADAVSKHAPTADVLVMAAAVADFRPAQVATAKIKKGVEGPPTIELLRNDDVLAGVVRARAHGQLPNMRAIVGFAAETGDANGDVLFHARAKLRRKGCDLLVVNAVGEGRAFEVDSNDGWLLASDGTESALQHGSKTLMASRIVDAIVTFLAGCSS
UniProt I6X8D2, whole entry: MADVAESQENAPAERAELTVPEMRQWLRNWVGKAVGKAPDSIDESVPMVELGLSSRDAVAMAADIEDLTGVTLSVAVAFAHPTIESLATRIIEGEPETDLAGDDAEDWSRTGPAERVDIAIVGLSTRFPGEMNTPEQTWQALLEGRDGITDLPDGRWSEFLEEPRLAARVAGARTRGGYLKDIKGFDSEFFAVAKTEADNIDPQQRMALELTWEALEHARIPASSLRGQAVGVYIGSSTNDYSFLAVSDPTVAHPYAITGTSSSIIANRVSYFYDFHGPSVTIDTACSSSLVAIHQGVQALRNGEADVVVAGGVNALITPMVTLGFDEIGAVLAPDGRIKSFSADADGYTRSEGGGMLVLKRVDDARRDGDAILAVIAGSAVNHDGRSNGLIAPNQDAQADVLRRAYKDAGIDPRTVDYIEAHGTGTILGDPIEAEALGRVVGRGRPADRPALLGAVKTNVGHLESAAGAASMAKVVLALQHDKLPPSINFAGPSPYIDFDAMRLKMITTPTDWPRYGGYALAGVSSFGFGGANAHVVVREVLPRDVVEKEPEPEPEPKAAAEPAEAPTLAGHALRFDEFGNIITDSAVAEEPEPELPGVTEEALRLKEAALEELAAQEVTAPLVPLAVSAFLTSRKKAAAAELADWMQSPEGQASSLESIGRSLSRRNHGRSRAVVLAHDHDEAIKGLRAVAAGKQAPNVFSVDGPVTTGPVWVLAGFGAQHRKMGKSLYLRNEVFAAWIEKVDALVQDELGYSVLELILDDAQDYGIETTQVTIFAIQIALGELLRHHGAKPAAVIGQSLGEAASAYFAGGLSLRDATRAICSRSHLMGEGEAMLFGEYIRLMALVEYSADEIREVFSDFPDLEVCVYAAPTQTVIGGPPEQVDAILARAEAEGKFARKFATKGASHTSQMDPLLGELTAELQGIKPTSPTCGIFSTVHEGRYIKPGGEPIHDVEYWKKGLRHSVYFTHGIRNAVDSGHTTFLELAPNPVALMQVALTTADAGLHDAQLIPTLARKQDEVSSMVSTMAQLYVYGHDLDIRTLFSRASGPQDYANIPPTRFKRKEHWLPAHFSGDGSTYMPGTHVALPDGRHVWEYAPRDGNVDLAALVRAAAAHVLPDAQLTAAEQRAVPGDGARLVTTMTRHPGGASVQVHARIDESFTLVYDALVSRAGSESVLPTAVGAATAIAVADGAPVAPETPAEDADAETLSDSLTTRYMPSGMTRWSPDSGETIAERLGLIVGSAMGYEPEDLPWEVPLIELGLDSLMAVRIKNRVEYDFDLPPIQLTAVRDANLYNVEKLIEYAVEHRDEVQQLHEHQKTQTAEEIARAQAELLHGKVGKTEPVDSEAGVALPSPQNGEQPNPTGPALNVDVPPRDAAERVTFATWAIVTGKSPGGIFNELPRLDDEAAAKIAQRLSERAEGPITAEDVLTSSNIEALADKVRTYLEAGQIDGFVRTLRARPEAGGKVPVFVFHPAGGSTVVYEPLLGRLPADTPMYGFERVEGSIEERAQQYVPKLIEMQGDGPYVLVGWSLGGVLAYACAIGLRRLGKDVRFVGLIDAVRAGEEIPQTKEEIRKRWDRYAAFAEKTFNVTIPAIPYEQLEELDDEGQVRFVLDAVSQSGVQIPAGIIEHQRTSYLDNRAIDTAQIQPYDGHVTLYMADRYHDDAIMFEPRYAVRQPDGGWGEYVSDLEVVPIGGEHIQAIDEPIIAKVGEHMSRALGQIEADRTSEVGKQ
UniProt P9WPC5, whole entry: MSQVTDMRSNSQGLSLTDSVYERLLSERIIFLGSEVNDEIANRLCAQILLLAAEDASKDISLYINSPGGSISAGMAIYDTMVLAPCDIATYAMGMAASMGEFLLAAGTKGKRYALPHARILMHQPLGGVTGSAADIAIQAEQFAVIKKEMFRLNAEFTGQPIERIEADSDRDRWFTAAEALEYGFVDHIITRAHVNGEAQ
UniProt P9WPC3, whole entry partner: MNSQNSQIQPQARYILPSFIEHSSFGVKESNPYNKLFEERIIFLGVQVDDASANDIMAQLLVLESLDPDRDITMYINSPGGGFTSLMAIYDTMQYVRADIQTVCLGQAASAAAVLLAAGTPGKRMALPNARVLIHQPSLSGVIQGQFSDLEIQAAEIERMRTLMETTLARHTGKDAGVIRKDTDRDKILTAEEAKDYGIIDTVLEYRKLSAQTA
UniProt A4I591, 1-473: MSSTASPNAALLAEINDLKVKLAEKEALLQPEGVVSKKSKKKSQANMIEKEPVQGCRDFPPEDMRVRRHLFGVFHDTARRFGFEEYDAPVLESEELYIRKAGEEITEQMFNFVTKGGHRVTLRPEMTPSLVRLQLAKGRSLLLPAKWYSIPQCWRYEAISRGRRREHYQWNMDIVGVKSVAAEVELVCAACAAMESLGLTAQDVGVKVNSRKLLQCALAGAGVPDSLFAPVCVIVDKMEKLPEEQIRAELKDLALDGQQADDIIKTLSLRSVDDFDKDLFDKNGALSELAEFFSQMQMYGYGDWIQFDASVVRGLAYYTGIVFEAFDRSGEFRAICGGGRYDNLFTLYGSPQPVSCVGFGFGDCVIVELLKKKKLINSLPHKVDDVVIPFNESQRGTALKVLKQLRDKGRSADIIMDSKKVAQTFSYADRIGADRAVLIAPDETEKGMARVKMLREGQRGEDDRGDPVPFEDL
UniProt P9WFT3, whole entry: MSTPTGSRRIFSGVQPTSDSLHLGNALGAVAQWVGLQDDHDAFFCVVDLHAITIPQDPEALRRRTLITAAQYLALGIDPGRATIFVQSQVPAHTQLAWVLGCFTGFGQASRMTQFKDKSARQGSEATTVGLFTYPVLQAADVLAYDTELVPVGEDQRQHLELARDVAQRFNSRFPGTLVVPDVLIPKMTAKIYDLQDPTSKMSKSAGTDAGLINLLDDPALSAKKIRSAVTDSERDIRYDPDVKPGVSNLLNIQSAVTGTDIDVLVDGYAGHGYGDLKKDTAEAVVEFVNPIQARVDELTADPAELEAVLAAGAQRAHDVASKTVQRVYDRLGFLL

CoaBC: 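Enzyme assay of CoaBC with a phosphate dye (Biomol Green) read at 650 nm. Target: Coenzyme A biosynthesis protein CoaBC, Mycobacterium tuberculosis (UniProt P9WNZ1). Compounds at 30 µM. Direction is inferred from only a few compounds that gave an IC50; most scored high, so higher reads as stronger inhibition. Most strong results did not repeat in a second test. Of about 67,000 compounds tested this way, about 40 (0.06%) reached 50% or more in at least one test.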
Pks13 thioesterase: 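Polyketide synthase Pks13, Mycobacterium tuberculosis (UniProt I6X8D2). Enzyme assay of the thioesterase domain of polyketide synthase 13; the read-out is not stated. Concentration: 30 µM. The record gives no direction; the compounds picked for IC50 retests had high values, so higher reads as stronger inhibition. Size under these conditions: about 67,000 compounds, about 300 of them at 50% or above in at least one test.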
ClpP1P2: 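Protease assay of ClpP1P2, read by the AMC dye that it sets free. Target: ClpP1P2, Mycobacterium tuberculosis (UniProt P9WPC5 and UniProt P9WPC3). Compounds at 50 µM. Direction is inferred from only a few compounds that gave an IC50; most scored high, so higher reads as stronger inhibition. Most other retested compounds had strongly negative values. Of about 69,000 compounds tested this way, about 10 (0.015%) reached 50% or more in at least one test.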
Toxoplasma: 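Assay of Toxoplasma gondii numbers, read through their beta-galactosidase reporter with a colour substrate. Tested at 10 µM. The record gives no direction; the compounds picked for IC50 retests had high values, so higher reads as fewer parasites. Of about 67,000 compounds tested this way, about 260 (0.38%) reached 50% or more in at least one test.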
LiHisRS: 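Histidine-tRNA ligase, Leishmania infantum (UniProt A4I591). Enzyme assay of histidyl-tRNA synthetase; the read-out is not stated. Tested at 30 µM. The record gives no direction; compounds that gave an IC50 in retests scored well above the rest, so higher reads as stronger inhibition. The assay is labelled LdHisRS but filed under L. infantum. Size under these conditions: about 69,000 compounds, about 410 of them at 50% or above in at least one test.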
MtTrpRS: 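Tryptophan-tRNA ligase, Mycobacterium tuberculosis (UniProt P9WFT3). Enzyme assay of tryptophanyl-tRNA synthetase; the read-out is not stated. Compounds at 10 µM. Direction is not recorded; retested compounds ran higher, which suggests that high means inhibition. Of about 65,000 compounds tested this way, about 64 (0.098%) reached 50% or more in at least one test.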

Results are given as percent effect. How 0% and 100% were set is not recorded. Most values in the screen are low, and negative values occur. This is an unselected part of the compounds tested. A dash means the value is not listed here; it may have been measured.

Compound	CoaBC	Pks13 thioesterase	ClpP1P2	Toxoplasma	LiHisRS	MtTrpRS
c1ccc(NCc2ccc(Cn3ccnc3)cc2)nc1	-0.2336%	-10.23%	-11.27%	15.52%	20.35%	0.0657%
CCS(=O)(=O)N1CCCn2nnc(CNC(C)=O)c2C1	0.1238%	-22.82%	17.63%	6.304%	11.88%	-
Cc1nn(C)cc1-c1cc(C(F)(F)F)nc(NC2CCN(C)CC2)n1	1.79%	10.85%	-3.138%	3.167%	-1.149%	0.4078%
CCc1cnc(CN(C)C2CCN(CCS(C)(=O)=O)C2)o1 (centres unmarked)	-1.688%	-3.414%	-12.47%	-3.082%	12.5%	-3.033%
COCCNCc1ccc(OCC(=O)NC(C)(C)C)cc1	7.514%	-24.78%	18%	1.949%	7.143%	1.795%
Cn1ncc2c1CN(Cc1ccc(F)cc1)CC2COCC1CC1 (centres unmarked)	-0.1233%	-20.46%	-18.11%	-	6.452%	-4.204%
COc1ccc(NC(=O)N2CCC3(CC2)NC(=O)CC3C(=O)O)cc1Cl (centres unmarked)	-2.893%	-15.65%	10.13%	-10.27%	25.33%	13.7%
CN(C)CCn1c2c(ccc1=O)CCN(C(=O)c1ccoc1)CC2.O=C(O)C(F)(F)F	-	-	-	36.17%	-	-
Cc1cc(NC(=O)NCC(CC(C)C)N2CCOCC2)n(C)n1 (centres unmarked)	3.728%	0.1607%	-8.298%	6.281%	5.357%	-4.036%
CCOc1ccc(C#N)cc1NC(=O)N1CCC(N2CCCC2)C1 (centres unmarked)	8.367%	-19.87%	-15.11%	-18.4%	13.7%	-5.062%
CC(C)CN(CC(O)c1ccc(F)cc1)C(=O)c1csnn1 (centres unmarked)	18.45%	9.87%	-15.57%	-3.885%	12.05%	-1.882%
CC(C)N1CCC(C(=O)N2CCN(c3cccc(C(=O)O)c3)CC2)CC1	8.642%	-26.65%	-1.864%	-14.81%	20.98%	-4.542%
CNCCNc1nccc(-c2cn(C)nc2C)n1	-0.3968%	11.23%	-9.279%	-15.52%	16.67%	0.9721%
CCn1c(C2CCN(Cc3cc(C)n(NC(C)=O)c3C)CC2)n[nH]c1=O	5.372%	-17.19%	5.193%	-9.458%	6.667%	-0.08842%
CCOC(=O)CCC(=O)N1CCC(CSCc2ccco2)CC1	0.8403%	2.582%	8.066%	-13.8%	14.53%	2.058%
O=C(C1CCOC1)N1CCC2(CCNCC2)C1 (centres unmarked)	6.821%	-29.25%	-1.102%	2.7%	17.31%	18.02%
CSc1ccc(OC(C)C(=O)Nc2cc(C)n[nH]2)cc1 (centres unmarked)	3.478%	-32.25%	-3.172%	-4.182%	7.853%	1.06%
CCC(=O)N1CCCCC1c1nc(CN(C)C(C)=O)cc(N(C)C)n1 (centres unmarked)	-3.881%	-4.643%	-39.85%	0.283%	6.711%	-3.897%
Cc1cc(C)c2c(c1)C(NC(=O)CSc1nnc[nH]1)CCO2 (centres unmarked)	3.629%	-16.61%	8.332%	-3.121%	7.018%	3.269%
Cn1cc(C2SCC(=O)Nc3c2cnn3C(C)(C)C)cn1 (centres unmarked)	-0.7229%	-30.24%	20.53%	16.9%	14.29%	1.1%
CCC(=O)N1CCC2(CC1)C(=O)N(Cc1cccnc1)CCN2C.O=C(O)C(F)(F)F.O=C(O)C(F)(F)F	-	-	-	0.7766%	-	-
Cc1nc(CN2C(=O)CCC23CCN(Cc2ccccn2)CC3)cs1	2.343%	2.184%	-19.67%	-	9.722%	-3.635%
Cc1cc(NCCn2cccn2)n2ncnc2n1	8.264%	-0.9886%	-3.717%	0.8876%	2.667%	-0.4836%
Cc1oncc1C(=O)N[C@@H]1CN(Cc2ccoc2)C[C@@H]2CCCO[C@@H]21	0%	-25.14%	8.084%	-	13.64%	-
CN(Cc1ccco1)Cc1cnc2n1CCN(S(C)(=O)=O)CC2.O=C(O)C(F)(F)F	-	-	-	-0.05319%	-	-
O=C(c1ccco1)N1CC[C@@H]2O[C@@H](COCC3CCOCC3)CC[C@@H]21	-4.715%	27.24%	-5.05%	-	-0.8403%	5.133%
CC(C)N1CCc2ncn(C)c2C1C(=O)NCCN1CCCC1 (centres unmarked)	-9.919%	-	-13.48%	-1.705%	4.202%	2.566%
CCc1cc(N2CCCC(c3noc(CC)n3)C2)ncn1 (centres unmarked)	5.934%	-23.39%	8.515%	-12.94%	11.43%	-2.562%
COCCC1(CNC(=O)NCC2CCCS2)CCCC1 (centres unmarked)	2.355%	-22.61%	-1.193%	1.154%	6.897%	-0.8227%
CCN(CCCNC(=O)Nc1ccccc1C(C)C)S(C)(=O)=O	-6.884%	-15.02%	-0.476%	27.94%	13.33%	-0.784%
Cc1cc(NCC2CCCCC2)n2ncnc2n1	-5.519%	-8.938%	-19.58%	0.6186%	11.59%	-8.293%
CCN(Cc1nc(COC)no1)C[C@]1(O)CCCN2CCCC[C@@H]21	-2.609%	-5.678%	-22.52%	-	19.17%	-4.631%

Some entries from above, unchanged:

* CCC(=O)N1CCCCC1c1nc(CN(C)C(C)=O)cc(N(C)C)n1 (centres unmarked) : CoaBC: -3.881%; Pks13 thioesterase: -4.643%; ClpP1P2: -39.85%; Toxoplasma: 0.283%; LiHisRS: 6.711%; MtTrpRS: -3.897%
* COCCNCc1ccc(OCC(=O)NC(C)(C)C)cc1 : CoaBC: 7.514%; Pks13 thioesterase: -24.78%; ClpP1P2: 18%; Toxoplasma: 1.949%; LiHisRS: 7.143%; MtTrpRS: 1.795%

The values are deposited in ChEMBL (CHEMBL3988442, “University of Dundee, Small-Polar-MMV Screening Library” (2021)).